The test system of the series is extirpated guinea pig ileum pieces. In words: Transmural electric stimulation test on an extirpated guinea pig ileum piece (smooth muscle contraction). The series is classed as cell-based. The protocol:
Example 7 Transmural Electric Stimulation Test on an Extirpated Guinea Pig Ileum Piece:
The effects of the compounds were examined by applying transmural electric stimulation (0.1 Hz) to extirpated guinea pig ileum pieces while using the smooth muscle contraction as an indication [refer to H.K. Kopsterlitz, A.A. Waterfield; Annu. Rev. Pharmacol., 15, 29 - 47 (1975)].
The data shown in Table 1 were calculated according to a method reported by Arunlakshana and Schild [refer to 0. Arunlakashana, H.O. Schild; Brit. J. Pharmacol., 14, 48 - 58 (1959)]. Each value is expressed in mean ± standard deviation.

Where [1] appears, read: slope belonging to pA₂ (naloxone), method of Arunlakshana and Schild, mean ± standard deviation.

Like-named read-outs stand apart in the source and are kept apart here.

As for `CC(=O)S[C@@H]1C=C[C@H]2[C@H]3Cc4ccc(O)c5c4[C@@]2(CCN3CC2CC2)[C@H]1O5` [Compound VI, 6β-acetylthio-N-cyclopropylmethylnormorphine], the Slope result under setting [1] was “(0.93 ± 0.09)”. Still for that read-out and setting: next, `CC(=O)Oc1ccc2c3c1O[C@H]1[C@H](SC(C)=O)C=C[C@H]4[C@@H](C2)N(CC2CC2)CC[C@@]341.Cl` [Compound VII, 3-acetyl-6β-acetylthio-N-cyclopropylmethylnormorphine hydrochloride]: “(0.84 ± 0.11)”. Turning to `CN1CC[C@]23c4c5ccc(O)c4O[C@H]2[C@@H](O)C=C[C@H]3[C@H]1C5.Cl` [Morphine hydrochloride, reference compound], the Slope result is “(1.03 ± 0.09)”.

For the origin of these results see patent publication EP0374919A1, “Morphine derivative” (Chugai Seiyaku Kabushiki Kaisha, priority 1988, dated 1990).
